Values of other authors in US8039505B2, “Compounds for modulating T-cells” (University of Utah Research Foundation, priority 2007, dated 2011).
At least one structure is not confirmed: it was looked up by name or label, or the drawing left a doubt.

Test system: T cells from the thymus of lck::eGFP transgenic zebrafish
Conditions: Langenau et al. 2004; cited from earlier work

C[C@@H]1C[C@H]2[C@@H]3CCC4=CC(=O)C=C[C@]4(C)[C@@]3(F)[C@@H](O)C[C@]2(C)[C@@]1(O)C(=O)CO [dexamethasone]
Ablation of zebrafish T cells: killed
